Values quoted from earlier work as cited in patent publication US20110098224A1, “PROTEIN KINASE C PEPTIDE MODULATORS OF ANGIOGENESIS” (priority 2005, published 2011).
At least one compound was matched to its structure with a doubt left.

What was measured:
retinal blood flow = conditions: cited from earlier work
[1] = test system: retinal vascular permeability; conditions: pretreatment; cited from earlier work

**Q.** What does the source list for `CN(C)C[C@@H]1CCn2cc(c3ccccc32)C2=C(C(=O)NC2=O)c2cn(c3ccccc23)CCO1` [LY333531]?
**A.** retinal blood flow compared to untreated diabetic rats (retinal blood flow): improved retinal blood flow; VEGF-induced increase of retinal vascular permeability [1]: prevent this result
